For at least one compound, name, drawing or mass did not settle the structure.
Assay: Powder dissolution testing in distilled water
Details: 2-3 mg sample in 25 ml distilled water at 25° C.

Cc1cc2c(s1)Nc1ccccc1N=C2N1CCN(C)CC1 [micronized olanzapine, olanzapine]
time at which the powder sample was 50% dissolved: approximately 1 minute
time at which the powder sample was completely dissolved: 2.5 min
